Results taken from patent US20200155487A1, “Treatment of obesity and its complications” (CymaBay Therapeutics, Inc., priority 2018, published 2020).
For at least one compound, name, drawing or mass did not settle the structure.

How the values were obtained:
[1] = system: patients with NASH and IGT or T2DM; conditions: liver histology, cited from earlier work
[2] = system: NASH patients; conditions: human, in vivo; cited from earlier work
[3] = system: DIO-NASH C57BL/6J mouse; assay: Diet-induced obese mouse model of NASH (DIO-NASH), 12 weeks dosing; type: in vivo; conditions: SD in parentheses
Description: The diet-induced obese mouse model of NASH (DIO-NASH) uses the C57BL/6J mouse fed a high fat diet that results in NAFLD/NASH. A protocol is described in Kristiansen et al., “Obese diet-induced mouse models of nonalcoholic steatohepatitis—tracking disease by liver biopsy”, World J. Hepatol., 8(16), 673-684 (2016). Male C57BL/6J mice were fed an atherogenic 40% high fat diet (AMLN diet, D09100301, Research Diet, US—40 kcal % fat (18% trans fat), 40 kcal % carbohydrate (20% fructose), 2% cholesterol) for 43 weeks before the start of the trial, to induce NAFLD/NASH. At week −3, the mice underwent a liver biopsy, which was scored for steatosis and fibrosis; mice with fibrosis stage <1 and steatosis score <2 were deselected prior to randomization. A stratified randomization into treatment groups was performed according to liver Collal quantification. […] At 12 weeks, analyses included body weight, plasma ALT, AST, triglycerides, and total cholesterol; liver triglycerides and total cholesterol; and NAS, fibrosis, Collal, galectin-3, and steatosis and fibrosis scores from a liver biopsy. Results are given in the table below: standard deviations are in parentheses: […]

For `CCc1ccc(CCOc2ccc(CC3SC(=O)NC3=O)cc2)nc1` (centres unmarked) [pioglitazone], the decrease in necroinflammation ([1]; p<0.002) is given as “approximately 50%” and the reduction in fibrosis ([1]; p=0.08) is given as 37%.
In the case of `CN(CCOc1ccc(CC2SC(=O)NC2=O)cc1)c1ccccn1` (centres unmarked) [rosiglitazone], the “effect on necrosis, inflammation, or fibrosis” value [2] is listed as “no significant effect”.
In the case of `CCCCCCCCCCCCCCCC(=O)N[C@@H](CCC(=O)NCCCC[C@H](NC(=O)[C@H](C)NC(=O)[C@H](C)NC(=O)[C@H](CCC(N)=O)NC(=O)CNC(=O)[C@H](CCC(=O)O)NC(=O)[C@H](CC(C)C)NC(=O)[C@H](Cc1ccc(O)cc1)NC(=O)[C@H](CO)NC(=O)[C@H](CO)NC(=O)[C@@H](NC(=O)[C@H](CC(=O)O)NC(=O)[C@H](CO)NC(=O)[C@@H](NC(=O)[C@H](Cc1ccccc1)NC(=O)[C@@H](NC(=O)CNC(=O)[C@H](CCC(=O)O)NC(=O)[C@H](C)NC(=O)[C@@H](N)Cc1cnc[nH]1)[C@@H](C)O)[C@@H](C)O)C(C)C)C(=O)N[C@@H](CCC(=O)O)C(=O)N[C@@H](Cc1ccccc1)C(=O)N[C@H](C(=O)N[C@@H](C)C(=O)N[C@@H](Cc1c[nH]c2ccccc12)C(=O)N[C@@H](CC(C)C)C(=O)N[C@H](C(=O)N[C@@H](CCCNC(=N)N)C(=O)NCC(=O)N[C@@H](CCCNC(=N)N)C(=O)NCC(=O)O)C(C)C)[C@@H](C)CC)C(=O)O` [Liraglutide], the NAS post-treatment ([3]; after 12 weeks dosing) is reported as 4.6 (0.8), the “Liver TC” value ([3]; at 12 weeks) is reported as 10 (2) mg/g liver and the “Liver TG” value ([3]; at 12 weeks) is reported as 77 (26) mg/g liver. The “Plasma TC” value ([3]; at 12 weeks) was 200 (40) mg/dL, the “Plasma TG” value ([3]; at 12 weeks) was 42 (17) mg/dL and the “Body weight (% relative to vehicle)” value ([3]; at 12 weeks, seladelpar 10 mg/Kg once/day, liraglutide 0.2 mg/Kg sc twice/day) was 89 (6) % relative to vehicle. The NAS pre-treatment ([3]; baseline biopsy before dosing) was 6.1 (0.8), the Sirius red stain ([3]; liver biopsy at 12 weeks) was 3.4 (2.1) % and the “Steatosis (% relative to baseline)” value ([3]; liver biopsy at 12 weeks) was −43 (25) % relative to baseline. For the same compound, the ALT ([3]; plasma, at 12 weeks) was 67 (32) U/L and the AST ([3]; plasma, at 12 weeks) was 122 (34) U/L.
